Not every detail of the peptide structures is certain; ends, links or a residue may be inferred. Starred links: 1 amine or outer side, 2 acyl side, 3 side chain; linkers in the order of their positions; H or OH if unused. Non-standard residues stand in square brackets, D forms with d. Residues, ends and D or L forms follow the SMILES beside them. Phe(4-Cl) = N[C@@H](Cc1ccc(Cl)cc1)C(=O)O; d2Nal = N[C@H](Cc1ccc2ccccc2c1)C(=O)O; εLys = N[C@@H](CCCCN[*:1])C(=O)[*:2]
Molecular target: T1, somatostatin receptor (Rattus norvegicus, UniProt P30680)
T1 construct: endogenous in cells; host or cells: AR42J rat pancreatic tumor cells (membrane preparation)
Experiment: Inhibition of [125I-Tyr11]somatostatin-14 binding to AR42J rat pancreatic tumor cell membranes
Conditions: [125I-Tyr11]somatostatin-14 0.5 nM, 25 min at 30° C.
Experimental: The rat pancreatic tumor cell line AR42J expressing the somatostatin receptor was cultured in Dulbecco's modified essential media (DMEM) supplemented with 10% fetal calf serum (FCS) and 8 mM glutamine in a humidified 5% CO2 atmosphere at 37° C. Harvested cells were homogenized in cold buffer (50 mM Tris-HCl, pH 7.4), and the homogenate was then centrifuged at 39,000 g for 10 min at 4° C. Pellets were washed once with buffer and then resuspended in ice-cold 10 mM Tris-HCl buffer (pH 7.4). Equal aliquots of this cell membrane preparation were then incubated with [^125I-Tyr^11]somatostatin-14 (Amersham, Arlington Heights, Ill.) at a final concentration of 0.5 nM at 750,000 cpm/mL, specific activity 2000Ci/mmol and either a peptide or peptide-rhenium complex of the invention (at a final concentration ranging from […] in 50 mM HEPES buffer, pH 7.4, containing 1% bovine serum albumin, 5 mM MgCl2, 0.02 mg/mL bacitracin, 0.02 mg/mL phenylmethyl-sulfonylfluoride and 200,000 IU Trasylol) for 25 min at 30° C.
After incubation, this membrane mixture was filtered through a polyethyleneimine-washed GC/F filter (Whatman Ltd., Maidstone, England) using a filtration manifold, and the residue remaining on the filter was washed three times with 5 mL cold HEPES buffer. The filter and a sample of the filter washings were then counted on a gamma counter. […]

Sequences of proteins named here, by UniProt entry; tags and fusion partners are left off. A change or cut given only in a name is not applied to a line headed by its entry.
UniProt P30680: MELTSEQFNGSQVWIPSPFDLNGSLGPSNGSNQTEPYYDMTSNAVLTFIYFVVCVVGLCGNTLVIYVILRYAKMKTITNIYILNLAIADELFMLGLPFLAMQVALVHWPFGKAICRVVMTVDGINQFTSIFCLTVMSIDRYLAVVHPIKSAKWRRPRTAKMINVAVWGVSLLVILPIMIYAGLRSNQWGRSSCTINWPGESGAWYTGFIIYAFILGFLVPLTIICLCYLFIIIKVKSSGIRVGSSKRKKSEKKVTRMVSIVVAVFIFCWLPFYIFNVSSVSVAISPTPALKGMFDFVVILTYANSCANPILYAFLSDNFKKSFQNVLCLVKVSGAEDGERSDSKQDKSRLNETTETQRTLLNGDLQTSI

## C[C@@H](O)[C@H](NC(=O)[C@H](Cc1ccccc1)NC(=O)[C@@H](NC(=O)[C@H](CCCCN)NC(=O)[C@@H](Cc1c[nH]c2ccccc12)NC(=O)[C@H](Cc1ccc(O)cc1)NC(=O)[C@H](Cc1ccc(Cl)cc1)NC(=O)[C@@H](Cc1ccc2ccccc2c1)NC(=O)[C@H](CC(=O)O)NC(=O)[C@H](CCCCN)NC(=O)[C@H](CC(=O)O)NC(=O)[C@@H](N)CCCCN)[C@@H](C)O)C(=O)NCCCC[C@H](N)C(=O)NCC(=O)N[C@@H](CS)C(=O)N[C@@H](CCCCN)C(=O)N[C@@H](CC(=O)O)C(=O)N[C@@H](CCCCN)C(=O)N[C@@H](CC(=O)O)C(N)=O [Peptide P545, KDKD.NalD.Cpa. YWDKTFT(ε-K)GCKDKD.amide] (H-KDKD[d2Nal][Phe(4-Cl)]Y[dW]KTFT[εLys]GCKDKD-NH2; N-terminus assumed)
  Ki: 2.6 nM

From patent publication US7238340B1, “Monoamine, diamide, thiol-containing metal chelating agents” (CIS bio international, priority 1991, dated 2007)
